Measurements taken from patent US20250092156A1.
These are yes or no findings as the source states them, for the method shown. Some binding calls cover weakened binding; strength is not graded here.

Sequences of proteins named here, by UniProt entry; tags and fusion partners are left off. A change or cut given only in a name is not applied to a line headed by its entry. A line that says so, or that is headed by a name, gives the form on record, which may keep a tag or linker.
FLAG-tagged RPTPα P210L/P211L wedge mutant (P18052, form named): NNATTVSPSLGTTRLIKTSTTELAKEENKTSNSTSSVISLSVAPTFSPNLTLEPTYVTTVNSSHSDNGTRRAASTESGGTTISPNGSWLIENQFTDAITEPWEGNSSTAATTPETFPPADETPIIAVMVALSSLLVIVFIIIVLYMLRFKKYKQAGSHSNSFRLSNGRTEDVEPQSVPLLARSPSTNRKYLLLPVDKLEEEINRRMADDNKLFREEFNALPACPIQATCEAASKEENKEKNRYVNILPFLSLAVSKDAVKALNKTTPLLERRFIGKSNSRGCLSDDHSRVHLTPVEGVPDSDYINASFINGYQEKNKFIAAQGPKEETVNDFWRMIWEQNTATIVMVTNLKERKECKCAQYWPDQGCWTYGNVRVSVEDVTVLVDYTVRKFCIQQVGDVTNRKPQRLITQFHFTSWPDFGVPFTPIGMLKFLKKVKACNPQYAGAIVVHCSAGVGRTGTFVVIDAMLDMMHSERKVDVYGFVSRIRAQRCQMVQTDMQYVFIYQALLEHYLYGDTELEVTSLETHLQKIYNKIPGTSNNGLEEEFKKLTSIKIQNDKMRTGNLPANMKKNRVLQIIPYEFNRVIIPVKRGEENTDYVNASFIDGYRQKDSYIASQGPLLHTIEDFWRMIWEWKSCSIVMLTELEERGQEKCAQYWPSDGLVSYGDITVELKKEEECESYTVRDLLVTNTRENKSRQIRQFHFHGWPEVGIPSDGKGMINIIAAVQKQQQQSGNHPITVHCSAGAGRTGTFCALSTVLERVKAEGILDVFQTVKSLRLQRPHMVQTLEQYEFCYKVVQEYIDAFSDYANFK

Columns and labels:
[1] = target: FLAG-tagged RPTPα P210L/P211L wedge mutant (mouse) (UniProt P18052); assay: FLIM-FRET, lower than WT-WT
[2] = target: FLAG-tagged RPTPα P210L/P211L wedge mutant (mouse) (UniProt P18052); assay: SECFRET / SEpFRET, HA-FLAG FRET, fixed FLS, against WT-WT
[3] = target: FLAG-tagged RPTPα P210L/P211L wedge mutant (mouse) (UniProt P18052); assay: spectral acceptor photobleaching FRET (apFRET), lower than WT-WT

- binding [1]: binds
- binding [2]: binds
- binding [3]: binds
Substance: HA-tagged RPTPα P210L/P211L wedge mutant (from UniProt P18052 20-829) (receptor)
